Measurements reported in PubChem BioAssay AID493246 (Drosophila RNAi Screening Center, 2011).

Assay: 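Genes fly cells need to grow and stay alive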 (primary screen)
Cells: Drosophila Kc and S2R+ cells
Reagents: long dsRNA against Drosophila genes
Measurement: 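Cell number per well after knock-down, printed as raw plate values; calls were based on per-plate z-scores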
Reading the numbers: Kc cell number and S2R+ cell number: higher = more cells remaining
Rule for the call: 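Counted as a hit if cell number falls by a z-score of at least 3 within its plate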
In all, the deposit lists about 21,000 reagents; shown is a random part of those that have a named target and a result. In the full data, 429 (2%) are marked active. 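Values are raw and not normalised between plates; calls rest on per-plate z-scores that were not deposited.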 No sequences are given here. Not stated in the record: the amount of reagent, the time to read-out.

Depletion of dati [DRSC17128] came out at: Kc cell number, rep 1 = 5.11e5; S2R+ cell number, rep 1 = 8.21e5; inactive. Depletion of dati [DRSC17153] resulted in: Kc cell number, rep 1 = 1.44e6; Kc cell number, rep 2 = 1.44e6; S2R+ cell number, rep 1 = 1.02e6; S2R+ cell number, rep 2 = 1.08e6; inactive. Silencing of CG32109 [DRSC09816] gave: Kc cell number, rep 1 = 1.29e6; Kc cell number, rep 2 = 1.44e6; S2R+ cell number, rep 1 = 1.21e6; S2R+ cell number, rep 2 = 1.26e6; inactive. For Ulp1 [DRSC19339], the values are Kc cell number, rep 1 = 1.69e6; Kc cell number, rep 2 = 1.63e6; S2R+ cell number, rep 1 = 1.10e6; S2R+ cell number, rep 2 = 1.27e6; inactive.

Copied from the list.
dati [DRSC17128], call → inactive
Ulp1 [DRSC19339], Kc cell number, rep 1 = 1.69e6

Additional entries:
Depletion of CanB [DRSC18449] resulted in: Kc cell number, rep 1 = 1.46e6; Kc cell number, rep 2 = 1.54e6; S2R+ cell number, rep 1 = 1.00e6; S2R+ cell number, rep 2 = 1.21e6; inactive. Jig [DRSC14974] gave Kc cell number, rep 1 = 1.40e6; Kc cell number, rep 2 = 1.49e6; S2R+ cell number, rep 1 = 1.22e6; S2R+ cell number, rep 2 = 1.32e6; inactive. Pos [DRSC15415] scored Kc cell number, rep 1 = 1.51e6; Kc cell number, rep 2 = 1.52e6; S2R+ cell number, rep 1 = 1.05e6; S2R+ cell number, rep 2 = 1.09e6; inactive. Depletion of aux [DRSC12161] resulted in: Kc cell number, rep 1 = 1.64e6; Kc cell number, rep 2 = 1.59e6; S2R+ cell number, rep 1 = 1.44e6; S2R+ cell number, rep 2 = 1.40e6; inactive. After knock-down of Gtpx [DRSC08221] the results were Kc cell number, rep 1 = 1.41e6; Kc cell number, rep 2 = 1.51e6; S2R+ cell number, rep 1 = 1.38e6; S2R+ cell number, rep 2 = 1.01e6; inactive. Knock-down of CG10680 [DRSC02093] gave: Kc cell number, rep 1 = 1.56e6; Kc cell number, rep 2 = 1.69e6; S2R+ cell number, rep 1 = 1.21e6; S2R+ cell number, rep 2 = 3.10e5; inactive.

Silencing of CG17233 [DRSC10259] came out at: Kc cell number, rep 1 = 1.32e6; Kc cell number, rep 2 = 1.39e6; S2R+ cell number, rep 1 = 9.81e5; S2R+ cell number, rep 2 = 1.05e6; inactive. Against CG42663 [DRSC06158], the values are Kc cell number, rep 1 = 1.71e6; Kc cell number, rep 2 = 1.76e6; S2R+ cell number, rep 1 = 1.26e6; S2R+ cell number, rep 2 = 1.44e6; inactive. For CG42663 [DRSC06404], the entry reads Kc cell number, rep 1 = 1.72e6; Kc cell number, rep 2 = 1.71e6; S2R+ cell number, rep 1 = 1.13e6; S2R+ cell number, rep 2 = 1.20e6; inactive.
